Assay results reported in the supplement of paper PMC10849652.
Some of the results follow.

Protein sequences, listed by entry. Tags and fused reporters are not part of them. Lines headed by an entry give the natural chain unless they say otherwise; changes in a name come on top.
UniProt P54802: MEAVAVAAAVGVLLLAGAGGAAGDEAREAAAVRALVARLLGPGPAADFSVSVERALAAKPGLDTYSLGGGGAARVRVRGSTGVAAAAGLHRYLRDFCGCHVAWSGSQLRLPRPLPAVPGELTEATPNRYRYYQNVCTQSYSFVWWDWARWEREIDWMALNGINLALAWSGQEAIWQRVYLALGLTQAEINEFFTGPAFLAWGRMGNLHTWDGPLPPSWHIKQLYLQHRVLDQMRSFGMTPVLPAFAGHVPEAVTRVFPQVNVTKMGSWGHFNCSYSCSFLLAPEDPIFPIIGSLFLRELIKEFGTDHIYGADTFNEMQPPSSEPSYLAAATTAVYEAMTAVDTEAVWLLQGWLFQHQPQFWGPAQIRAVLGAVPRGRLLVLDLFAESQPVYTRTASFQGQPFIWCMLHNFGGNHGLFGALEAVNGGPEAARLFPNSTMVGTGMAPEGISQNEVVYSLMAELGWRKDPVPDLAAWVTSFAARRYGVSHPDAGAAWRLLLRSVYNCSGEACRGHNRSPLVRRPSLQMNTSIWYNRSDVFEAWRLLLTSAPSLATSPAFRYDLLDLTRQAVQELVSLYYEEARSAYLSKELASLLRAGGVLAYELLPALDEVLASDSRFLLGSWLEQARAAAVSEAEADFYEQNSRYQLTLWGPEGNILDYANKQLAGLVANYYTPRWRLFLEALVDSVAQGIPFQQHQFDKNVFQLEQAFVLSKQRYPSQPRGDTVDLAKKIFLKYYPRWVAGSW
UniProt Q8TBE9: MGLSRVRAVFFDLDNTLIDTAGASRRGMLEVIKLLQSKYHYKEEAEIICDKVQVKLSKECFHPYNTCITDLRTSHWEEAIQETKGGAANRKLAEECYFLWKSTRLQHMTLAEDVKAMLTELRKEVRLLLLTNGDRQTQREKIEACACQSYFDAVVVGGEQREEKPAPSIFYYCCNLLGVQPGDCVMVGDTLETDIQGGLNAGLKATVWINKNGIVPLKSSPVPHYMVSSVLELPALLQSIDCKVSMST
UniProt P14649: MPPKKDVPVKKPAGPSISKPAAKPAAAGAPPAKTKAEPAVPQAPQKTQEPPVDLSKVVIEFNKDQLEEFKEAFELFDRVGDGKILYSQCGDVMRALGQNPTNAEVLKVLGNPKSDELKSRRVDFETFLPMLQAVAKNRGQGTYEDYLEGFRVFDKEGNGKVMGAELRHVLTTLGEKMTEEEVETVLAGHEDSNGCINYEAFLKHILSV
UniProt O00159, whole entry, looked up: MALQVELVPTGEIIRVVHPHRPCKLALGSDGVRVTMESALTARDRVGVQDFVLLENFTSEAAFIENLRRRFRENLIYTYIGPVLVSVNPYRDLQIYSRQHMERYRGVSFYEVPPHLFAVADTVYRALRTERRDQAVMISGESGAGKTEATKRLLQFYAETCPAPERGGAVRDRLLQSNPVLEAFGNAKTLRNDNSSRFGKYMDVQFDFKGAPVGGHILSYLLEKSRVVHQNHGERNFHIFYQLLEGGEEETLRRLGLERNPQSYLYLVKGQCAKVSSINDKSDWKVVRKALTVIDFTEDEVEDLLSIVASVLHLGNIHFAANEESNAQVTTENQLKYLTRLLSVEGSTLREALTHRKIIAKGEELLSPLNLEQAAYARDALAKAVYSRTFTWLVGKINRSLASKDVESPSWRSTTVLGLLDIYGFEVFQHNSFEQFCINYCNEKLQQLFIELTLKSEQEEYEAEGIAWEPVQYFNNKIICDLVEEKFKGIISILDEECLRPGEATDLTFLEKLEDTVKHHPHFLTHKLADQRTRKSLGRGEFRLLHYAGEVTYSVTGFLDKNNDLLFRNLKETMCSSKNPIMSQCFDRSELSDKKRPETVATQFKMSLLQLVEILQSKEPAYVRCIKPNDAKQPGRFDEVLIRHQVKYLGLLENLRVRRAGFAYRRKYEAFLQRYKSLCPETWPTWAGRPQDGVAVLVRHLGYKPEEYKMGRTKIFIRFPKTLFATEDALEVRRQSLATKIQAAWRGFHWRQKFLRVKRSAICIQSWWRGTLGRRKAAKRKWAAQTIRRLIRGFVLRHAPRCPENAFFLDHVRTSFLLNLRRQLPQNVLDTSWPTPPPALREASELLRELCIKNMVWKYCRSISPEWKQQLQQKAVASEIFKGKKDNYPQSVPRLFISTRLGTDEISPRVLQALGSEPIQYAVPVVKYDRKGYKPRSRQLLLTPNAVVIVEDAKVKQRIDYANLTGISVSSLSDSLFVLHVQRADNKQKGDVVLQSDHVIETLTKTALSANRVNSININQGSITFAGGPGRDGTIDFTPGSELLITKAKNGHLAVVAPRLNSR
UniProt Q99747: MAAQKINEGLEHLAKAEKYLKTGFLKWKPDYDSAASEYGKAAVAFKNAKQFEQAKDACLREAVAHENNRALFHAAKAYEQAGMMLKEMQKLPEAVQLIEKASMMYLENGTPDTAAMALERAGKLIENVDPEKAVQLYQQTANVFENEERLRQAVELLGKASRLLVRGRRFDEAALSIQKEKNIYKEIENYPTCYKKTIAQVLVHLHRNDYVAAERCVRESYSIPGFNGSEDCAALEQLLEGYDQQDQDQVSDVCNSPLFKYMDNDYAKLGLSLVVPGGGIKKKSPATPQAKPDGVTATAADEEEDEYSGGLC
UniProt Q9Y5N5: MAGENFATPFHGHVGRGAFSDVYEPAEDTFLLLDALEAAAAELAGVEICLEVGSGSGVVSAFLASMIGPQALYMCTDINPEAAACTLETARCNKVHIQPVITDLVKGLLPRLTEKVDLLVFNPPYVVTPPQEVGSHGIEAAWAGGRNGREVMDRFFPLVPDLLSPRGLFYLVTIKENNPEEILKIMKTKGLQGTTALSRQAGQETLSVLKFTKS
UniProt P42695: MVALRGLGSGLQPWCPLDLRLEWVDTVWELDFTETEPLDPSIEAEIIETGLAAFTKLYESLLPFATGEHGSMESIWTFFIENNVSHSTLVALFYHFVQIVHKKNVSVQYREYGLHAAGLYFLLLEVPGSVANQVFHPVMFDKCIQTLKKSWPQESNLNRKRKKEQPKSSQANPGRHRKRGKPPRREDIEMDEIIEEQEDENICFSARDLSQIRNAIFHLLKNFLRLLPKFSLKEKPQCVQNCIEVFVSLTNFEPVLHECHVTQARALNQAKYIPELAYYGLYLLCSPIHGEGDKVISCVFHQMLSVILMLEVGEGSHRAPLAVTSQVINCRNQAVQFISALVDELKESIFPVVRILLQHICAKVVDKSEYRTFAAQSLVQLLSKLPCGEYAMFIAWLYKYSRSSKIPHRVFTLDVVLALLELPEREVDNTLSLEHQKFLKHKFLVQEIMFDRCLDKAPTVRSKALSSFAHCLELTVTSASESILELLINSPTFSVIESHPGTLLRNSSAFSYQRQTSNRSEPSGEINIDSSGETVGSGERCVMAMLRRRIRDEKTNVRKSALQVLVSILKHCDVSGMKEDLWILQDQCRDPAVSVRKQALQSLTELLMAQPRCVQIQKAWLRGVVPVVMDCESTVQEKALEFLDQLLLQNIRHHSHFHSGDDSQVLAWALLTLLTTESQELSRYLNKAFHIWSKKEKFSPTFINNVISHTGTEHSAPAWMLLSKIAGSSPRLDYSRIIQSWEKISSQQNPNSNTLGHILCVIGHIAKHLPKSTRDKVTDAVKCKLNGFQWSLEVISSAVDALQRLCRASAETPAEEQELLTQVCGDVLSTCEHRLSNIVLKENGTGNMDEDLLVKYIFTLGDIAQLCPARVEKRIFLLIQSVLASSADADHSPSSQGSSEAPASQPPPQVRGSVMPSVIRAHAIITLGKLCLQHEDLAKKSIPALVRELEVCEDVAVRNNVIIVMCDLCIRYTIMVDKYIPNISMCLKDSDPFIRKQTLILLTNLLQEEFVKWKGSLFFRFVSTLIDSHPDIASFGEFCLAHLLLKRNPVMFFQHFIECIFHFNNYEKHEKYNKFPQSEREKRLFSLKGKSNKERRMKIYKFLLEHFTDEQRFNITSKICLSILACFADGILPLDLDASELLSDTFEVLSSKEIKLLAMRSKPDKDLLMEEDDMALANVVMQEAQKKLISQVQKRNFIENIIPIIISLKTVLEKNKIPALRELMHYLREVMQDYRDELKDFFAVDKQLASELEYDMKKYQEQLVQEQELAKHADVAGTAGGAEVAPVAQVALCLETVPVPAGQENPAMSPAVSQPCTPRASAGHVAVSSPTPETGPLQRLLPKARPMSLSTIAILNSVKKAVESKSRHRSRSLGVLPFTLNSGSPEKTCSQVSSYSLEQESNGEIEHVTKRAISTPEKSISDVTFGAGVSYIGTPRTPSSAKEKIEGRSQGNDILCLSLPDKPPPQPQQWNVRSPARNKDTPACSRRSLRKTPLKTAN
UniProt P18440: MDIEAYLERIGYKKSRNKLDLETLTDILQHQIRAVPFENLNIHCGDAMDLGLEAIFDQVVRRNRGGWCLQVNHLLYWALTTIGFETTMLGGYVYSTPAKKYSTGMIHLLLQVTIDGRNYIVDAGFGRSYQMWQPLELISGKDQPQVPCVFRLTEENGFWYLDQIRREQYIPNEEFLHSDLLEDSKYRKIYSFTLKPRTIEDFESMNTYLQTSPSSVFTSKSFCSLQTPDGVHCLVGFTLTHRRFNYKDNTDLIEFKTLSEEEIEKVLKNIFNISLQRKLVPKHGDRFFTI

Assays:
Assay in all cases: log2 fold change, soluble protein after heating vs DMSO (PISA); higher = thermal stabilisation; K562 lysate, 10 uM; active = over 0.2 and 3.5 SD of the protein, either way, in both replicates (recomputed)
vemurafenib = compound: CCCS(=O)(=O)Nc1ccc(F)c(C(=O)c2c[nH]c3ncc(-c4ccc(Cl)cc4)cc23)c1F [vemurafenib]
In short: (§1)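 The values are log-two fold changes in thermal stability compared with solvent controls and come from duplicates. They were obtained by TMTpro 16plex LC-MS/MS, with channel sums equalised, on the supernatant after 21,000xg for 90 min. That supernatant came from crude K562 extract at 1 mg/mL protein treated with 10 μM compound for 30 min, heated for 3 min across 48°C-58°C, pooled and brought to 0.5% NP-40 at 4°C.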

[1] = compound: CCCS(=O)(=O)Nc1ccc(F)c(C(=O)c2c[nH]c3ncc(Cl)cc23)c1F
In short: as §1

barasertib = compound: CCN(CCCOc1ccc2c(Nc3cc(CC(=O)Nc4cccc(F)c4)[nH]n3)ncnc2c1)CCOP(=O)(O)O [barasertib]
In short: as §1

[2] = compound: CC[C@@H]1C(=O)N(C)c2cnc(Nc3ccc(C(=O)NC4CCN(C)CC4)cc3OC)nc2N1C1CCCC1
In short: as §1

volasertib = compound: CC[C@@H]1C(=O)N(C)c2cnc(Nc3ccc(C(=O)N[C@H]4CC[C@H](N5CCN(CC6CC6)CC5)CC4)cc3OC)nc2N1C(C)C [volasertib]
In short: as §1

[3] = compound: CCn1c(C(=O)N(C2CC2)C2CC2)cc2c3c(ncn3C)c(Nc3cc(C)n(C)n3)nc21
In short: as §1

[4] = compound: CCn1cc(-c2ccnc3[nH]c(-c4cccc(CN(C)C)c4)cc23)c(-c2ccc(NC(=O)N(C)C)cc2)n1
In short: as §1

[5] = compound: CN1CCC(CNc2ccc3ncc(-c4cccc(OC(F)(F)F)c4)n3n2)CC1
In short: as §1

saracatinib = compound: CN1CCN(CCOc2cc(OC3CCOCC3)c3c(Nc4c(Cl)ccc5c4OCO5)ncnc3c2)CC1 [saracatinib]
In short: as §1

sotrastaurin = compound: CN1CCN(c2nc(C3=C(c4c[nH]c5ccccc45)C(=O)NC3=O)c3ccccc3n2)CC1 [sotrastaurin]
In short: as §1

alvocidib = compound: CN1CC[C@H](c2c(O)cc(O)c3c(=O)cc(-c4ccccc4Cl)oc23)[C@H](O)C1 [alvocidib]
In short: as §1

Tubastatin A = compound: CN1CCc2c(c3ccccc3n2Cc2ccc(C(=O)NO)cc2)C1 [Tubastatin A]
In short: as §1

[6] = compound: CNC(=O)C1=CC=CC=C1NC2=NC(=NC=C2Cl)NC3=C(C=C(C=C3)N4CCOCC4)OC
In short: as §1

defactinib = compound: CNC(=O)c1ccc(Nc2ncc(C(F)(F)F)c(NCc3nccnc3N(C)S(C)(=O)=O)n2)cc1 [defactinib]
In short: as §1

[7] = compound: CNc1nc(-c2ccc3c(N)n[nH]c3c2)cc(N2C[C@@H](C(=O)NC3CCCCC3)CC[C@H]2C)n1
In short: as §1

encorafenib = compound: COC(=O)N[C@@H](C)CNc1nccc(-c2cn(C(C)C)nc2-c2cc(Cl)cc(NS(C)(=O)=O)c2F)n1 [encorafenib]
In short: as §1

[8] = compound: COC(=O)[C@H](CCSC)NC(=O)C1=C(C=C(C=C1)NC[C@H](CS)N)C2=CC=CC=C2
In short: as §1

alisertib = compound: COc1cc(Nc2ncc3c(n2)-c2ccc(Cl)cc2C(c2c(F)cccc2OC)=NC3)ccc1C(=O)O [alisertib]
In short: as §1

[9] = compound: COc1cc2nc(-c3cc(F)ccc3O)nc(N[C@@H]3CNC[C@H]3C(C)(C)O)c2cc1OC
In short: as §1

gefitinib = compound: COc1cc2ncnc(Nc3ccc(F)c(Cl)c3)c2cc1OCCCN1CCOCC1 [gefitinib]
In short: as §1

Measured: log2 fold change

NAGLU (UniProt P54802)
inactive: vemurafenib 0.048 | [1] 0.012 | barasertib -0.015 | [2] 0.031 | volasertib -0.085 | [3] -0.007 | [4] 0.025 | [5] 0.001 | saracatinib 0.06 | sotrastaurin -0.051 | alvocidib 0.059 | Tubastatin A -0.011 | [6] 0.018 | defactinib -0.018 | [7] 0.058 | encorafenib -0.059 | [8] -0.022 | alisertib -0.032 | [9] 0.061 | gefitinib 0.078

NANP (UniProt Q8TBE9)
inactive: vemurafenib -0.037 | [1] 0 | barasertib 0.021 | [2] -0.052 | volasertib -0.041 | [3] 0.067 | [4] -0.041 | [5] 0.149 | saracatinib 0.027 | sotrastaurin 0.007 | alvocidib -0.052 | Tubastatin A -0.032 | [6] 0.104 | defactinib 0.067 | [7] 0.059 | encorafenib 0.119 | [8] -0.18 | alisertib 0.035 | [9] -0.015 | gefitinib 0.023

MYL6B (UniProt P14649)
inactive: vemurafenib 0.018 | [1] 0.004 | barasertib -0.002 | [2] -0.008 | volasertib 0.024 | [3] 0.02 | [4] 0.043 | [5] -0.025 | saracatinib 0.025 | sotrastaurin 0.008 | alvocidib -0.006 | Tubastatin A 0.003 | [6] 0.01 | defactinib 0.037 | [7] -0.008 | encorafenib -0.003 | [8] -0.034 | alisertib -0.027 | [9] -0.003 | gefitinib 0.001

MYO1C (UniProt O00159)
inactive: vemurafenib -0.016 | [1] 0.039 | barasertib -0.012 | [2] -0.042 | volasertib -0.046 | [3] 0.101 | [4] -0.025 | [5] -0.018 | saracatinib -0.019 | sotrastaurin 0.028 | alvocidib 0.029 | Tubastatin A -0.114 | [6] -0.057 | defactinib 0.052 | [7] -0.045 | encorafenib 0.076 | [8] 0.049 | alisertib 0.008 | [9] 0.01 | gefitinib -0.02

NAPG (UniProt Q99747)
inactive: vemurafenib 0.001 | [1] 0.001 | barasertib -0.018 | [2] 0.018 | volasertib 0.022 | [3] 0 | [4] 0.016 | [5] -0.023 | saracatinib -0.009 | sotrastaurin -0.043 | alvocidib 0.01 | Tubastatin A -0.01 | [6] 0.005 | defactinib -0.025 | [7] 0.011 | encorafenib -0.005 | [8] -0.009 | alisertib 0.036 | [9] 0.021 | gefitinib -0.001

N6AMT1 (UniProt Q9Y5N5)
active: defactinib 0.361
inactive: vemurafenib 0.201 | [1] -0.016 | barasertib 0.113 | [2] 0.005 | volasertib -0.04 | [3] 0.006 | [4] -0.047 | [5] -0.048 | saracatinib 0.019 | sotrastaurin 0.038 | alvocidib 0.062 | Tubastatin A 0.026 | [6] 0.048 | [7] 0.021 | encorafenib -0.011 | [8] 0.069 | alisertib -0.084 | [9] 0.004 | gefitinib -0.045

NCAPD3 (UniProt P42695)
inactive: vemurafenib -0.032 | [1] 0.047 | barasertib 0.06 | [2] -0.013 | volasertib -0.088 | [3] 0.035 | [4] 0.068 | [5] -0.015 | saracatinib 0.008 | sotrastaurin 0.003 | alvocidib -0.006 | Tubastatin A -0.224 | [6] 0.017 | defactinib 0.017 | [7] 0.013 | encorafenib 0.037 | [8] -0.018 | alisertib -0.017 | [9] 0 | gefitinib -0.002

NAT1 (UniProt P18440)
inactive: vemurafenib 0.04 | [1] -0.003 | barasertib -0.104 | [2] 0.003 | volasertib 0.009 | [3] -0.012 | [4] -0.149 | [5] -0.014 | saracatinib -0.001 | sotrastaurin 0.078 | alvocidib 0.038 | Tubastatin A -0.087 | [6] -0.025 | defactinib 0.05 | [7] -0.046 | encorafenib -0.02 | [8] 0.006 | alisertib 0.035 | [9] 0.039 | gefitinib 0.031
